Source: PubChem BioAssay AID504786 (Drosophila RNAi Screening Center, 2011)
In all, the deposit lists about 21,000 reagents; shown is an unselected part of those that have a named target and a result. 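Primary screen; positive scores mean lost reporter signal, so the sign may be inverted from the usual convention.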 Names joined by + are all predicted targets of the reagent. Not all columns of the deposit are shown.

Screen: 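Positive regulators of HIF-driven reporter output in Drosophila cells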 (primary screen)
System: Drosophila S2 cells with a stable HIF luciferase reporter
Knock-down reagent: long dsRNA against Drosophila genes, about 0.2 µg dsRNA per well of a 384-well plate
Duration: three days of knock-down, then 20 h of DFO before reading
Challenge: desferrioxamine (DFO) at 100 µM, an iron chelator that mimics hypoxia, for 20 h
Measured: 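HIF reporter luminescence in cells given 100 µM DFO for 20 h, using the mouse ldh-a hypoxia-response element, scored as per-plate z-scores; higher means greater loss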
Scale: z-score: higher = stronger loss of HIF reporter signal

target | amplicon | z-score, replicate 1 | z-score, replicate 2 | z-score, replicate 3
lwr (GeneID 33226) | DRSC00828 | -0.5 | -0.6 | –
GCC185 (GeneID 41459) | DRSC15493 | -0.3 | -0.6 | –
CG33702 (GeneID 3771932) | DRSC08986 | -0.3 | 0 | –
can (GeneID 45432) | DRSC10664 | 0.2 | -0.3 | –
CG32486 (GeneID 38367) | DRSC08413 | -0.4 | -0.3 | –
CG32486 (GeneID 38367) | DRSC08488 | -0.4 | -0.2 | –
unc-13 (GeneID 43841) | DRSC17192 | -0.2 | -0.3 | –
unc-13 (GeneID 43841) | DRSC17193 | -0.3 | -0.6 | –
unc-13 (GeneID 43841) | DRSC17223 | -0.1 | -0.3 | –
Cdc6 (GeneID 38989) | DRSC10563 | -0.1 | -0.3 | –
CG13705 (GeneID 38587) | DRSC08314 | -0.4 | -0.9 | –
RanBPM (GeneID 36102) | DRSC06079 | -0.4 | -0.8 | –
CG2906 (GeneID 35753) | DRSC06841 | -0.3 | -0.7 | –
CG9547 (GeneID 33911) | DRSC03260 | -0.2 | 0 | –
Hakai (GeneID 35256) | DRSC02031 | -0.5 | -0.5 | –
CG10359 (GeneID 38434) | DRSC08156 | -0.4 | -0.6 | –
olf413 (GeneID 40453) | DRSC11543 | -0.1 | 1.9 | –
olf413 (GeneID 40453) | DRSC11679 | -0.3 | -0.4 | -0.4
olf413 (GeneID 40453) | DRSC11721 | -0.3 | -0.6 | –
olf413 (GeneID 40453) | DRSC11833 | -0.3 | -0.1 | –
Vamp7 (GeneID 36015) | DRSC06599 | -0.2 | -0.4 | –
GV1 (GeneID 38238) | DRSC08228 | -0.2 | -0.4 | –
Ost48 (GeneID 31849) | DRSC18693 | -0.1 | 0.2 | –
FLASH (GeneID 36455) | DRSC06872 | 0.6 | -0.3 | –
CG34243 (retired record) (GeneID 5740341) | DRSC09291 | 0.2 | -0.2 | –
CG34243 (retired record) (GeneID 5740341) | DRSC09292 | 0.1 | 0.1 | –
Cpr62Ba (GeneID 38239) | DRSC08403 | -0.3 | -0.6 | –
otk2 (GeneID 36284) | DRSC07303 | -0.3 | -0.4 | –
dao (GeneID 34891) | DRSC01960 | -0.1 | -0.5 | –
CG1724 (GeneID 33097) | DRSC20548 | -0.2 | -0.4 | –
ITP (GeneID 37921) | DRSC04222 | -0.2 | -0.1 | –
mei-9 (GeneID 31373) | DRSC18792 | -0.2 | 0.7 | –
atlas (GeneID 37689) | DRSC04183 | 0 | 0.5 | –
l(3)80Fj (GeneID 3355040) | DRSC20986 | 0.5 | 0 | –
l(3)80Fj (GeneID 3355040) | DRSC20989 | -0.5 | -0.1 | –
RpL13 (GeneID 34329) | DRSC03416 | 4 | 8.8 | –
DIP2 (GeneID 252479) | DRSC08582 | -0.2 | 0.1 | –
Patr-1 (GeneID 42058) | DRSC14159 | -0.2 | 0.7 | –
pros (GeneID 41363) | DRSC12856 | -0.3 | -0.2 | –
pros (GeneID 41363) | DRSC17032 | -0.1 | -0.3 | –
His2B:CG33870 + His2B:CG33868 + His2B:CG33882 + 21 more | DRSC03757 | 2.7 | 3.3 | –
CG3420 (GeneID 35585) | DRSC04995 | -0.2 | 2.2 | –
CG8314 (GeneID 36757) | DRSC07144 | -0.3 | -0.4 | –
CG12713 (GeneID 39724) | DRSC09900 | -0.2 | -0.2 | –
kug (GeneID 40191) | DRSC10911 | -0.3 | -0.5 | –
ItgaPS4 (GeneID 36693) | DRSC06630 | -0.2 | -0.4 | –
BubR1 (GeneID 35522) | DRSC04838 | 0.3 | 0.4 | –
CG42591 (GeneID 8674006) | DRSC08905 | 0.3 | 0.4 | –
Acp65Aa (GeneID 38710) | DRSC09663 | -0.4 | -0.8 | –
CG15710 (GeneID 36832) | DRSC06581 | -0.3 | -1 | –
CG14642 (GeneID 40532) | DRSC12228 | -0.3 | -0.4 | –
Atac2 (GeneID 35113) | DRSC02053 | -0.3 | -0.3 | –
beta-Spec (GeneID 32746) | DRSC20311 | -0.3 | -0.3 | –
su(sable) (GeneID 31012) | DRSC18839 | 0 | 0.2 | –
Nplp1 (GeneID 38003) | DRSC04370 | -0.2 | -0.4 | –
jbug (GeneID 43997) | DRSC03952 | 0.1 | -0.1 | –
jbug (GeneID 43997) | DRSC04114 | -0.2 | -0.3 | –
jbug (GeneID 43997) | DRSC04167 | -0.2 | -0.1 | –
jbug (GeneID 43997) | DRSC04388 | -0.3 | 0.1 | –
CG10265 (GeneID 36676) | DRSC05986 | -0.2 | -0.2 | –
CPT2 (GeneID 38355) | DRSC08553 | 0.1 | 0 | –
moody (GeneID 31168) | DRSC18515 | -0.4 | -0.6 | –
CG10553 (GeneID 43064) | DRSC14254 | 0.1 | 0.2 | –
rnh1 (GeneID 35746) | DRSC07673 | 0 | 0.4 | –
Ibf2 (GeneID 41102) | DRSC16551 | -0.2 | 0.2 | –
Chrac-16 (GeneID 32166) | DRSC20343 | -0.4 | 3.8 | –
NSD (GeneID 43351) | DRSC15691 | -0.2 | 0.1 | –
CIAPIN1 (GeneID 49424) | DRSC03559 | -0.4 | -0.3 | –
CG5478 (GeneID 41936) | DRSC15814 | -0.3 | -0.7 | –
Gr58c (GeneID 37501) | DRSC04136 | 0 | -0.2 | –
CG6321 (GeneID 39233) | DRSC10623 | -0.4 | -0.7 | –
Vm26Ac (GeneID 33828) | DRSC02329 | -0.3 | 0.1 | –
CG31266 (GeneID 42071) | DRSC15747 | -0.3 | -1 | –
CG1677 (GeneID 31662) | DRSC18116 | 0.7 | 0 | –
Tsp96F (GeneID 43127) | DRSC14147 | -0.3 | -0.1 | –
CG31010 (GeneID 318555) | DRSC14006 | -0.1 | -0.3 | –
mah (GeneID 42988) | DRSC14645 | -0.2 | 0.2 | –
CG13731 (GeneID 39938) | DRSC10059 | -0.4 | -0.2 | –
Sol1 (GeneID 41513) | DRSC15263 | -0.2 | -0.2 | –
Sol1 (GeneID 41513) | DRSC15271 | -0.3 | -0.4 | –
Sol1 (GeneID 41513) | DRSC15681 | -0.3 | -0.5 | –
CG6870 (GeneID 35067) | DRSC02998 | -0.3 | -0.7 | –
mib1 (GeneID 39750) | DRSC10550 | -0.3 | -0.1 | –

Part of the list above, showing only “z-score, replicate 1”:
Patr-1 (GeneID 42058) [DRSC14159]: -0.2
pros (GeneID 41363) [DRSC12856]: -0.3
pros (GeneID 41363) [DRSC17032]: -0.1
His2B:CG33870 + His2B:CG33868 + His2B:CG33882 + 21 more [DRSC03757]: 2.7
CG3420 (GeneID 35585) [DRSC04995]: -0.2
CG8314 (GeneID 36757) [DRSC07144]: -0.3
CG12713 (GeneID 39724) [DRSC09900]: -0.2
kug (GeneID 40191) [DRSC10911]: -0.3
ItgaPS4 (GeneID 36693) [DRSC06630]: -0.2
BubR1 (GeneID 35522) [DRSC04838]: 0.3
CG42591 (GeneID 8674006) [DRSC08905]: 0.3
